At least one peptide structure holds a part that was inferred or is arguable (an end, a ring closure or a residue). No end group written: not given here.
Legend:
PBMC [1] = experiment: Cytokine release (ELISA) and intracellular cytokine staining in stimulated PBMC; assay type: cell-based, human
Method: FIG. 2. sPIF-1(15) (SEQ ID NO:13) increases the percentage of PBMC that contain TH2 type cytokines (IL10, IL 4), while scrPIF-1(15) (SEQ ID NO: 5) has a TH1 bias (INFgamma). Isolated PBMC were stimulated by PHA (1 ug/ml) and cultured 2-4 days with sPIF-1(15) (SEQ ID NO:13) or scrPIF-1(15) (SEQ ID NO:5). 30 nM. PBMC cytokines content was determined by specific staining using flow cytometry. Effect of PIF-1 on cellular content of cytokines of PBMC was examined up to 96 hours and a time dependent pattern emerged, not replicated by scrambled or irrelevant peptide. Measurements were carried out in two separate stages. […]
Human PBMC were isolated and cultured for 2-4 days in AIM-V medium containing 0 to 200 nM of sPIF-115 (SEQ ID NO:13) or scrPIF-115 (SEQ ID NO:5). […] The effects of sPIF-115 (SEQ ID NO:13) or scrPIF-115 (SEQ ID NO:5) peptides were also determined by the mixed lymphocyte reaction (MLR) after 3 days in heterologous cultures of PBMC with cells previously treated with mitomycin C (100 μg/ml for 4 h). Cell proliferation was determined by tritiated thymidine incorporation (16 h) of 72-h culture. Cytokine release (IL-4, IL-10, IFN-γ and TNF-α) into culture supernatants was determined at 72 h of culture by ELISA (R&D System).

PBMC [2] = experiment: Time-dependent cytokine secretion by PBMC (Table 3); assay type: cell-based, human
Method: Detailed time dependent and multiple controls were used the secretion of several cytokines by PBMC (IL-2, IL-5, IL-8, GM-CSF, IL-4, IL-10, TNF-α, IFN-γβ, IL-1 and IL-6) were measured. […] By 4 hours, sPIF-1 blocked TNF alpha with recovery by 24 hours. Also INFgamma secretion initiated only after 48 hours. […] Effects on cytokines was already noted at 0.7 nM. Similar effects were found also with other mitogens LPS and PHA when PIF-1 was tested.

PBMC [3] = experiment: PIF and analogues on release of cytokines +/- platebound mAbCD3 (Table 4); assay type: cell-based; set-up: IL-1β / TNFa / IL-4 / IL-5 / IL-6 / IL-10 / GM-CSM / IFN-g: unit not given here
mouse splenocytes = experiment: FITC peptide binding to mouse splenocytes with 100 fold excess unlabeled peptide; set-up: species or system C57Bl/6 mice; conditions: 300 nM FITC peptide +/- 100 fold excess unlabeled peptide
β-3 integrin = β-3 integrin expression by human endometrial epithelial cells (flow cytometry, immunocytochemistry); assay type: cell-based; conditions: scrPIF-1 at 6.25 uM
Method: Human endometrial tissues were digested and stromal and epithelial cells (hEEC) isolated and cultured with a fetal bovine serum (FBS)-enriched medium until confluent layers were obtained. After that the cells were cultured for two more days in a FBS free-medium followed by a further 2-day culture in the same medium containing PIF peptides (1-500 nM).
In addition, to compare the recovery of β-3 integrin expression with PIF effects described after cultured hEEC in a free-fetal bovine serum (FBS) medium some cells were cultured again in FBS-medium. […] PIF binding to epithelial cells was also examined. Binding was examined using MaBCD2 staining.

[4] = tested on: PIF-1 polyclonal antibody; experiment: PIF-1 competitive ELISA, biotin labeled versus unlabeled peptide; assay type: binding, rabbits
mice = experiment: Intravaginal administration twice daily for seven days in mated mice; assay type: in vivo
Method: Female mice were mated with mice from the same strain. Subsequently, on day 0 (presumed day of mating) PIF-1scr in saline solution was administered intravaginally twice daily for seven days (Dr Alan Hoberman, Argus, Inc). The dose was 800 ug/day, 150 ug/ml or saline vehicle only (5 animals in each group). Subsequently, mice were sacrificed at day 12 of presumed gestation and Caesarean-sectioned. Corpora lutea, implantation sites and live and dead embryos were recorded.

[5] = 4 h post induction, substance alone
[6] = 4 h post induction, with MabCD3 coated wells
[7] = 24 h post induction, substance alone
[8] = 24 h post induction, with MabCD3 coated wells
[9] = 48 h post induction, substance alone
[10] = 48 h post induction, with MabCD3 coated wells
[11] = 96 h post induction, substance alone
[12] = 96 h post induction, with MabCD3 coated wells

## GRVDPSNKSMPKDIA [scrPIF-115, GRVDPSNKSMPKDIA]
PBMC [1]; PHA 1 ug/ml, 2-4 days, 30 nM, flow cytometry
  cytokine bias (INFgamma): TH1 bias
PBMC [1]; same concentrations, intracellular staining and flow cytometry
  effect on cytokine-containing cells: no effect
PBMC [2]; [5]
  GM-CSF: 0 pg/mL
  IFN-y: 0 pg/mL
  IL-1β: 0 pg/mL
  IL-2: 0 pg/mL
  IL-4: 0 pg/mL
  IL-5: 0 pg/mL
  IL-6: 0 pg/mL
  IL-8: 792.5 pg/mL
  IL-10: 0 pg/mL
  TNF-α: 0 pg/mL
PBMC [2]; [6]
  GM-CSF: 0 pg/mL
  IFN-y: 0 pg/mL
  IL-1β: 20.3 pg/mL
  IL-2: 0 pg/mL
  IL-4: 0 pg/mL
  IL-5: 0 pg/mL
  IL-6: 20.3 pg/mL
  IL-8: 513.7 pg/mL
  IL-10: 0 pg/mL
  TNF-α: 1175.6 pg/mL
PBMC [2]; [7]
  GM-CSF: 0 pg/mL
  IFN-y: 27.7 pg/mL
  IL-1β: 85.7 pg/mL
  IL-2: 35.8 pg/mL
  IL-4: 0 pg/mL
  IL-5: 0 pg/mL
  IL-6: 65.5 pg/mL
  IL-8: >6330 pg/mL
  IL-10: 21.3 pg/mL
  TNF-α: 5095.6 pg/mL
PBMC [2]; [8]
  GM-CSF: 0 pg/mL
  IFN-y: 18.1 pg/mL
  IL-1β: 75.0 pg/mL
  IL-2: 33.7 pg/mL
  IL-4: 0 pg/mL
  IL-5: 0 pg/mL
  IL-6: 46.7 pg/mL
  IL-8: >6330 pg/mL
  IL-10: 17.5 pg/mL
  TNF-α: 4058.1 pg/mL
PBMC [2]; [9]
  GM-CSF: 0 pg/mL
  IFN-y: 124.3 pg/mL
  IL-1β: 181.6 pg/mL
  IL-2: 0 pg/mL
  IL-4: 0 pg/mL
  IL-5: 0 pg/mL
  IL-6: 1061.0 pg/mL
  IL-8: >6330 pg/mL
  IL-10: 18.4 pg/mL
  TNF-α: 4071.2 pg/mL
PBMC [2]; [10]
  GM-CSF: 0 pg/mL
  IFN-y: 0 pg/mL
  IL-1β: 0 pg/mL
  IL-2: 0 pg/mL
  IL-4: 0 pg/mL
  IL-5: 0 pg/mL
  IL-6: 16.3 pg/mL
  IL-8: 7544.2 pg/mL
  IL-10: 0 pg/mL
  TNF-α: 0 pg/mL
PBMC [2]; [11]
  GM-CSF: 0 pg/mL
  IFN-y: 16.2 pg/mL
  IL-1β: 57.0 pg/mL
  IL-2: 0 pg/mL
  IL-4: 0 pg/mL
  IL-5: 0 pg/mL
  IL-6: 55.3 pg/mL
  IL-8: >6330 pg/mL
  IL-10: 0 pg/mL
  TNF-α: 299.7 pg/mL
PBMC [2]; [12]
  GM-CSF: 0 pg/mL
  IFN-y: 0 pg/mL
  IL-1β: 0 pg/mL
  IL-2: 0 pg/mL
  IL-4: 0 pg/mL
  IL-5: 0 pg/mL
  IL-6: 0 pg/mL
  IL-8: 0 pg/mL
  IL-10: 0 pg/mL
  TNF-α: 0 pg/mL
PBMC [2]; time course
  effect on TNFalpha secretion: early and consistent stimulatory effect
PBMC [3]; C- (platebound mAbCD3), /1
  GM-CSM: 19.2
  IFN-g: 102.1
  IL-1β: 3.8
  IL-2: 20.5
  IL-4: 17.8
  IL-5: 0
  IL-6: 176.8
  IL-8: >5000
  IL-10: 51.9
  TNFa: 120.8
PBMC [3]; C- (platebound mAbCD3), /50
  GM-CSM: 19.3
  IFN-g: 104.7
  IL-1β: 7.4
  IL-2: 16.2
  IL-4: 16.4
  IL-5: 0
  IL-6: 200.9
  IL-8: >5000
  IL-10: 66.7
  TNFa: 115.6
PBMC [3]; U- (no mAbCD3), /1
  GM-CSM: 10.3
  IFN-g: 0
  IL-1β: 0
  IL-2: 0
  IL-4: 0
  IL-5: 0
  IL-6: 39.6
  IL-8: 1243.1
  IL-10: 0
  TNFa: 0
PBMC [3]; U- (no mAbCD3), /50
  GM-CSM: 0
  IFN-g: 0
  IL-1β: 0
  IL-2: 0
  IL-4: 0
  IL-5: 0
  IL-6: 36.5
  IL-8: 1071.6
  IL-10: 0
  TNFa: 0
Mouse splenocytes
  binding to the PIF receptor: lower affinity
β-3 integrin
  blocking of the sPIF-1(15) 10 nM effect on β-3 integrin: about 70%
[4]
  competition with biotinylated peptide: did not compete
mice; in each treatment group (800 ug/day; 150 ug/ml), 5 animals each, one in control group
  animals that failed to conceive: 2
mice; vs one out of the five control animals
  treated animals (both groups pooled) as worded 'conceived': Four out of ten

Reference: patent publication US7723289B2, “PIF tetrapeptides” (BioIncept, LLC, priority 2003, dated 2010)
